Here are results for 1 molecule from US20160032259A1 (KOREA ADVANCED INSTITUTE OF SCIENCE AND TECHNOLOGY KAIST, published 2016).

The experiment concerns the target T1, hVEGF-B (human) (UniProt P49765).
T1 sequence (looked up): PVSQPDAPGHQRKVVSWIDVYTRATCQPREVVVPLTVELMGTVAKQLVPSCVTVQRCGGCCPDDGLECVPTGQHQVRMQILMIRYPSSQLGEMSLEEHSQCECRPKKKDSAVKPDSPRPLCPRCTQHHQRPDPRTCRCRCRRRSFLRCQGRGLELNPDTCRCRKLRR
The experiment in a line: solid phase binding ELISA; hVEGF-B coated, Fc fusion titrated, anti-human Fc-HRP.

No constants are given. Whether binding was seen depends on the method and setting. Some results given as binding are weak or reduced against the parent protein; the word gives no strength.

B1: VEGF-Trap (Fc fusion, UniProt P17948 129-230, looked up, not shown: a dimerising Fc or GST)
chain: SDTGRPFVEMYSEIPEIIHMTEGRELVIPCRVTSPNITVTLKKFPLDTLIPDGKRIIWDSRKGFIISNATYKEIGLLTCEATVNGHLYKTNYLTHRQTNTIIDVVLSPSHGIELSVGEKLVLNCTARTELNVGIDFNWEYPSSKHQHKKLVNRDLKTQSGSEMKKFLSTLTIDGVTRSDQGLYTCAASSGLMTKKNSTFVRVHEK
modifications: N-glycans at Asn61, Asn93 and Asn328
For B1, the binding entry is “binds”.
